Among all 410,000 compounds or so, about 850 (0.21%) were called active. All entries are inconclusive by the source's own rule. Clear calls are listed elsewhere. The call rests on the fitted dose curve; in most records, active means well fitted inhibition curve with a large enough effect; inconclusive means small, poorly fitted or top-dose-only effect, or another doubt; inactive means no such curve, though single readings can be large or run the other way. Some results for these compounds are left out of this collection, so the calls shown say nothing about other tests.
molecular target: Glutaminase kidney isoform, mitochondrial (Homo sapiens) (UniProt O94925); assay: qHTS for Inhibitors of Glutaminase (GLS); settings: GLS enzymatic activity, qHTS titration
Potency means the concentration at half of the fitted maximal effect.

By UniProt entry, the sequences of proteins in these tests, tags left out.
UniProt O94925, whole entry: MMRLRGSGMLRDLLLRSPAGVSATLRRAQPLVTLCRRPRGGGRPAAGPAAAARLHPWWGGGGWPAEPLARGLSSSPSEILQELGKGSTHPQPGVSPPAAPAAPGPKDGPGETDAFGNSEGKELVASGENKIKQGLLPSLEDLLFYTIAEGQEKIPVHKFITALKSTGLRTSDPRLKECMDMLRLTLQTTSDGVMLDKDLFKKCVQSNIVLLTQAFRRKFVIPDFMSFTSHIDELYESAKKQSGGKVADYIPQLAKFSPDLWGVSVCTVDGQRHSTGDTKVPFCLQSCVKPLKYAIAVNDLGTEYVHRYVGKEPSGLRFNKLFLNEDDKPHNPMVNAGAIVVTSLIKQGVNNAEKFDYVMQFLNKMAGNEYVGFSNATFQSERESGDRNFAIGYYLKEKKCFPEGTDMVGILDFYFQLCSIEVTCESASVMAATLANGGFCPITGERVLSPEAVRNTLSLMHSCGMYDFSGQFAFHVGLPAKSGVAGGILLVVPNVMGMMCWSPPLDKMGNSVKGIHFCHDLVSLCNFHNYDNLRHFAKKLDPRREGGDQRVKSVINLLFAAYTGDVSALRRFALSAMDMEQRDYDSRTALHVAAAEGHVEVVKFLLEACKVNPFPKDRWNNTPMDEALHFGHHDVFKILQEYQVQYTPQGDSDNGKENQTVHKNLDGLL

Row | SMILES | Potency
1 | COc1ccc(Cl)cc1C(=O)NCC1(N(C)C)CCCCC1 | inconclusive: 6.31 µM

From PubChem BioAssay AID624170 (National Center for Advancing Translational Sciences (NCATS), 2012)
